Publication PMC3189943, “Catalytic Properties of the Isolated Diaphorase Fragment of the NAD^+-Reducing [NiFe]-Hydrogenase from Ralstonia eutropha” (PLoS ONE, 2011)
These are yes or no findings as the source states them, for the method shown. In cells and extracts the contact can be indirect. Some results given as binding are weak or reduced against the parent protein; the word gives no strength.

Sequences of proteins named here, by UniProt entry; tags and fusion partners are left off.
UniProt P22317: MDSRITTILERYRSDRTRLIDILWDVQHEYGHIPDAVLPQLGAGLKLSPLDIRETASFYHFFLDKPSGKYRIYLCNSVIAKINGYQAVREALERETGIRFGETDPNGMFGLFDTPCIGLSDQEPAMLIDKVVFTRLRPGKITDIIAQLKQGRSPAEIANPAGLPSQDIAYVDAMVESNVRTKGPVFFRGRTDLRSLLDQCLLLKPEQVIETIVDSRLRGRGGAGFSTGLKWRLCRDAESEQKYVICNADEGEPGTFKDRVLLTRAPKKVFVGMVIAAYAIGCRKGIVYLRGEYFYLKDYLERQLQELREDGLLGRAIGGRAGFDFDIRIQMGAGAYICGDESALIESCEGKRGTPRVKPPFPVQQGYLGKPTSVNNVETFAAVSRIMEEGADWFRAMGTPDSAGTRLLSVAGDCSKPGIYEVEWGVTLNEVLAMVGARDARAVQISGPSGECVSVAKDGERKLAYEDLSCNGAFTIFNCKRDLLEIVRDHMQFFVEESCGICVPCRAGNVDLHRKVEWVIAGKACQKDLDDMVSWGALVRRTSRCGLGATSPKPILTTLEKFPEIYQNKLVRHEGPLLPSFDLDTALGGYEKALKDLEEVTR
UniProt P22318: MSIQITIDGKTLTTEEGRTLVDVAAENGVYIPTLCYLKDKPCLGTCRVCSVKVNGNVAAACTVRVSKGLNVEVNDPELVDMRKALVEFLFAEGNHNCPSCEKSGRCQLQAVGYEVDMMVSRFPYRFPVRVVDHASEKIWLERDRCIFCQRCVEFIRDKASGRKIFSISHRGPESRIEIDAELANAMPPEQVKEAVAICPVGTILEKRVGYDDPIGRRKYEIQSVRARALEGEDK

Target: Strep-tagged HoxF, subunit of the diaphorase moiety of the NAD+-reducing soluble [NiFe]-hydrogenase (SH) of Ralstonia eutropha H16 (Ralstonia eutropha H16) (UniProt P22317)
Assay: pull-down + SEC; Strep-tagged HoxF captured from the soluble extract of R. eutropha HF424(pGE553) on a Strep-Tactin Superflow column, eluted with 5 mM desthiobiotin, then gel filtration on Superdex 200; 50 mM Tris-HCl, 150 mM KCl, 5% glycerol, pH 8.0; read by SDS-PAGE with Coomassie blue and peptide mass fingerprinting

binding: binds
Substance: HoxU, subunit of the diaphorase moiety of the NAD+-reducing soluble [NiFe]-hydrogenase (SH) of Ralstonia eutropha H16 (from UniProt P22318 1-234)
